For four molecules, binding results are on record in doi:10.1101/2025.01.31.635913.

By UniProt entry, the sequences of proteins in these tests, tags left out.
UniProt O48538: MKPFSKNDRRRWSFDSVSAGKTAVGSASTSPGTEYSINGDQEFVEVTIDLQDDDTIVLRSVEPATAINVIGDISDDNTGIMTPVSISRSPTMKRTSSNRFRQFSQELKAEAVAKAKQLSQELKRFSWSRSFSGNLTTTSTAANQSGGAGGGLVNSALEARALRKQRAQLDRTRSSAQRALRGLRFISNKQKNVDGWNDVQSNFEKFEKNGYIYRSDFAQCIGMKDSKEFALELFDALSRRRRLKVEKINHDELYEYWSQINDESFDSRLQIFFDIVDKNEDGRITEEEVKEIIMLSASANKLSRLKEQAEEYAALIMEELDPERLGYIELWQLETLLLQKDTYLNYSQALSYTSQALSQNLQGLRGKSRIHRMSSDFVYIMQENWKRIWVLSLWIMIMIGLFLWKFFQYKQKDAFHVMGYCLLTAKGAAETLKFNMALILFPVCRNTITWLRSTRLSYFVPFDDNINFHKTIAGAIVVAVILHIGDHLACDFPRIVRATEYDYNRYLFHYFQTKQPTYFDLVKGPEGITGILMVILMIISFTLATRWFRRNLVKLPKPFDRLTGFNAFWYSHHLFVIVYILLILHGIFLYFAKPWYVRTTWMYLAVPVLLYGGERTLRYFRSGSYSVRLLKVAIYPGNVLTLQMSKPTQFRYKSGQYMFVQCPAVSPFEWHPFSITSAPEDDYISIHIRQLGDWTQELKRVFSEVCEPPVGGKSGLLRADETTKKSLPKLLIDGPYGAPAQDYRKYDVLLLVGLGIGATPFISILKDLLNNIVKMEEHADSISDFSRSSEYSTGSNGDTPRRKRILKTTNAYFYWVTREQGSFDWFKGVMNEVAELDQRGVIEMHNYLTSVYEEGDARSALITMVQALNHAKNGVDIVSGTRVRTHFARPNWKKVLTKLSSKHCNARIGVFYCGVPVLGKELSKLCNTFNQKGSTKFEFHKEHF

No constants are given. Whether binding was seen depends on the method and setting. In cells and extracts the contact can be indirect. Here binding means that the protein was enriched with, or labelled near, the bait; the list need not be complete. Sequences can lack the tags named with a protein.

T1: AtMC1^C220A-GFP (catalytically inactive AtMC1 fused to C-terminal GFP), stable Arabidopsis transgenic (Arabidopsis thaliana) (UniProt Q7XJE6)
T1 sequence: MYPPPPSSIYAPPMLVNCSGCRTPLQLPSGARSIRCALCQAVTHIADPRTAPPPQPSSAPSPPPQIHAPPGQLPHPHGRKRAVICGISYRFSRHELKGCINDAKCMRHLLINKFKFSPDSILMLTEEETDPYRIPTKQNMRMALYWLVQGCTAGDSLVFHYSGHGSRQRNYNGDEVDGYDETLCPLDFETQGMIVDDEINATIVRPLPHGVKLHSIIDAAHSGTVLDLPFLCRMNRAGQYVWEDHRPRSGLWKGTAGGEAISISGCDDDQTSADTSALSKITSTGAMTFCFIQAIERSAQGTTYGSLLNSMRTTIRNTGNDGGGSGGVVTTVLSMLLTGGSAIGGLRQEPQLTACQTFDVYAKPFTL

B1: RPS2, endogenous in Arabidopsis (receptor, UniProt Q42484 1-909)
chain: MDFISSLIVGCAQVLCESMNMAERRGHKTDLRQAITDLETAIGDLKAIRDDLTLRIQQDGLEGRSCSNRAREWLSAVQVTETKTALLLVRFRRREQRTRMRRRYLSCFGCADYKLCKKVSAILKSIGELRERSEAIKTDGGSIQVTCREIPIKSVVGNTTMMEQVLEFLSEEEERGIIGVYGPGGVGKTTLMQSINNELITKGHQYDVLIWVQMSREFGECTIQQAVGARLGLSWDEKETGENRALKIYRALRQKRFLLLLDDVWEEIDLEKTGVPRPDRENKCKVMFTTRSIALCNNMGAEYKLRVEFLEKKHAWELFCSKVWRKDLLESSSIRRLAEIIVSKCGGLPLALITLGGAMAHRETEEEWIHASEVLTRFPAEMKGMNYVFALLKFSYDNLESDLLRSCFLYCALFPEEHSIEIEQLVEYWVGEGFLTSSHGVNTIYKGYFLIGDLKAACLLETGDEKTQVKMHNVVRSFALWMASEQGTYKELILVEPSMGHTEAPKAENWRQALVISLLDNRIQTLPEKLICPKLTTLMLQQNSSLKKIPTGFFMHMPVLRVLDLSFTSITEIPLSIKYLVELYHLSMSGTKISVLPQELGNLRKLKHLDLQRTQFLQTIPRDAICWLSKLEVLNLYYSYAGWELQSFGEDEAEELGFADLEYLENLTTLGITVLSLETLKTLFEFGALHKHIQHLHVEECNELLYFNLPSLTNHGRNLRRLSIKSCHDLEYLVTPADFENDWLPSLEVLTLHSLHNLTRVWGNSVSQDCLRNIRCINISHCNKLKNVSWVQKLPKLEVIELFDCREIEELISEHESPSVEDPTLFPSLKTLRTRDLPELNSILPSRFSFQKVETLVITNCPRVKKLPFQERRTQMNLPTVYCEEKWWKALEKDQPNEELCYLPRFVPN
B2: RECEPTOR-LIKE PROTEIN 42 (RLP42), endogenous in Arabidopsis (receptor, UniProt Q9LJS0 22-890)
chain: SSFFTFNNPAEGPGACGPHQIQAFTQFKNEFDTRACNHSDPWNGVWCDNSTGAVTMLQLRACLSGTLKPNSSLFQFHHLRSLLLPHNNFTSSSISSKFGMLNNLEVLSLSSSGFLAQVPFSFSNLSMLSALDLSKNELTGSLSFVRNLRKLRVLDVSYNHFSGILNPNSSLFELHHLIYLNLRYNNFTSSSLPYEFGNLNKLEVLDVSSNSFFGQVPPTISNLTQLTELYLPLNDFTGSLPLVQNLTKLSILHLFGNHFSGTIPSSLFTMPFLSSIYLNKNNLSGSIEVPNSSSSSRLEHLYLGKNHLGKILEPIAKLVNLKELDLSFLNTSHPIDLSLFSSLKSLLLLDLSGDWISKASLTLDSYIPSTLEVLRLEHCDISEFPNVFKTLHNLEYIALSNNRISGKFPEWLWSLPRLSSVFITDNLLTGFEGSSEVLVNSSVQILSLDTNSLEGALPHLPLSINYFSAIDNRFGGDIPLSICNRSSLDVLDLSYNNFSGQIPPCLSNLLYLKLRKNNLEGSIPDKYYVDTPLRSFDVGYNRLTGKLPRSLINCSALQFLSVDHNGIKDTFPFYLKALPKLQVLLLSSNEFYGPLSPPNQGPLGFPELRILEIAGNKLTGSLPPDFFVNWKASSHTMNEDLGLYMVYSKVIFGNYHLTYYETIDLRYKGLSMEQENVLTSSATIDLSGNRLEGEIPESLGLLKALIALNLSNNAFTGHIPLSLANLKKIESLDLSSNQLSGTIPNGLGTLSFLAYMNVSHNQLNGEIPQGTQITGQPKSSFEGNAGLCGFPLQESCFGTNAPPAQKPKEEEEAEEDEQELNWKAVAIGYGVGVLLGLAIAQLIASYKPEWLVCLVKSRNPLRSFFGFEY

This test deals with T1, AtMC1^C220A-GFP (catalytically inactive AtMC1 fused to C-terminal GFP), stable Arabidopsis transgenic (Arabidopsis thaliana). The experiment in a line: affinity purification with mass spectrometry.
“RBOHF, endogenous in Arabidopsis (from UniProt O48538 1-944) (enzyme)”: the binding result was “binds”. Next, “SSI4 (AT5G41750), endogenous in Arabidopsis (receptor)”: “binds”; B1: “binds”. Consider B2, for which the binding entry is “binds”.
